From PMC7422068
These are yes or no findings as the source states them, for the method shown. Binding seen in cells or lysates may run through a third protein. Some results given as binding are weak or reduced against the parent protein; the word gives no strength.

The chains behind the UniProt entries cited, without tags or fusion partners.
UniProt Q91YI4: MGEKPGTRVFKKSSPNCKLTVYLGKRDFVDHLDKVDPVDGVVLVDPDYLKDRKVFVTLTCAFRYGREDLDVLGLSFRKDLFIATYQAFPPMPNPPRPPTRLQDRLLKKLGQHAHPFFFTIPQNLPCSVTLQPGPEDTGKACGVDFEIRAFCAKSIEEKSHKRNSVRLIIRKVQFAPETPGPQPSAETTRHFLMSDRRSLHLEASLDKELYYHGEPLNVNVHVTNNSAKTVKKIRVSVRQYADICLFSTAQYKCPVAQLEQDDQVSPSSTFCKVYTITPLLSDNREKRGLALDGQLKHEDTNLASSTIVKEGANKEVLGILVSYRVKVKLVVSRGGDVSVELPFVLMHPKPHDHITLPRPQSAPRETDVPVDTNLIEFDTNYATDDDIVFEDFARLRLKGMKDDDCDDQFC
UniProt Q9Z1E3: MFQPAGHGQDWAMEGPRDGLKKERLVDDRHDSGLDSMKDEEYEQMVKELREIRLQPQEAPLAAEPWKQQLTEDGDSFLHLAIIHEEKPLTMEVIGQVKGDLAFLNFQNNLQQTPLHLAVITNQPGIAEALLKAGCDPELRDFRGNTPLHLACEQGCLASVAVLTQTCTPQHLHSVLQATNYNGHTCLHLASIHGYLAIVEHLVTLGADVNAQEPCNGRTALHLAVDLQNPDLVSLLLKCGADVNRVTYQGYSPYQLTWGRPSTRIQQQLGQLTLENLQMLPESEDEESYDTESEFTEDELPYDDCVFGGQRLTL

Molecular target: β-arrestin-2 (mouse (endogenous in SV-40 MES 13 glomerular mesangial cells)) (UniProt Q91YI4)
Test: co-IP; cell extracts of mouse GMCs; IP with anti-β-arrestin-2 antibody (normal mouse IgG as negative control), blot with anti-I-κBα antibody; endogenous proteins; cells also treated with 30 mM high glucose, 5 mM butyrate, siRNA-GPR43 or GPR43 overexpression

## I-κBα (from UniProt Q9Z1E3 1-314)
  binding: binds
